Source: the supplement of paper PMC7661543
Differences between knockout arms are mostly noise.

Test system: ZR-75-1
Test: relative cell number vs DMSO control (72 h) (% of DMSO); higher = less growth inhibition (more cells)
Procedure: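 QMAP-Seq: a pool of 5 breast cancer cell lines (ZR-75-1, SKBR3, HCC-38, MDA-MB-231, BT-20), each carrying 12 doxycycline-inducible Cas9 sgRNA perturbations (11 knockouts plus non-targeting sgNT), was treated with compounds for 72 h at four 10-fold doses (10 nM-10 uM or 1 nM-1 uM range). Barcodes were amplified and sequenced, and cell number was interpolated from 293T spike-in standard curves. The result is expressed as % of the median of DMSO wells. Two biological replicates.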

CC(C)(C#N)c1cc(Cn2cncn2)cc(C(C)(C)C#N)c1 [Anastrozole]
Settings	relative cell number
sgRNA knockout: sgATF3, 1 nM	101
sgRNA knockout: sgATF3, 10 nM	90.2
sgRNA knockout: sgATF3, 100 nM	117.4
sgRNA knockout: sgATF3, 1000 nM	92.9
sgRNA knockout: sgATF4, 1 nM	102
sgRNA knockout: sgATF4, 10 nM	131
sgRNA knockout: sgATF4, 100 nM	114
sgRNA knockout: sgATF4, 1000 nM	112
sgRNA knockout: sgATF6, 1 nM	125
sgRNA knockout: sgATF6, 10 nM	84.6
sgRNA knockout: sgATF6, 100 nM	114
sgRNA knockout: sgATF6, 1000 nM	87.5
sgRNA knockout: sgATG7, 1 nM	139
sgRNA knockout: sgATG7, 10 nM	99.1
sgRNA knockout: sgATG7, 100 nM	102
sgRNA knockout: sgATG7, 1000 nM	120
sgRNA knockout: sgERN1, 1 nM	91.6
sgRNA knockout: sgERN1, 10 nM	86.8
sgRNA knockout: sgERN1, 100 nM	112
sgRNA knockout: sgERN1, 1000 nM	94.6
sgRNA knockout: sgHSF2, 1 nM	107
sgRNA knockout: sgHSF2, 10 nM	102
sgRNA knockout: sgHSF2, 100 nM	98.2
sgRNA knockout: sgHSF2, 1000 nM	118
sgRNA knockout: sgNFE2L2, 1 nM	122.1
sgRNA knockout: sgNFE2L2, 10 nM	80.5
sgRNA knockout: sgNFE2L2, 100 nM	98.7
sgRNA knockout: sgNFE2L2, 1000 nM	111
sgRNA knockout: sgSLC35F2, 1 nM	104
sgRNA knockout: sgSLC35F2, 10 nM	76.1
sgRNA knockout: sgSLC35F2, 100 nM	101
sgRNA knockout: sgSLC35F2, 1000 nM	94
sgRNA knockout: sgXBP1, 1 nM	107
sgRNA knockout: sgXBP1, 10 nM	72.6
sgRNA knockout: sgXBP1, 100 nM	97.3
sgRNA knockout: sgXBP1, 1000 nM	103

C[C@H]1CCC/C=C/[C@@H]2C[C@H](O)C[C@H]2[C@H](O)/C=C/C(=O)O1 [BrefeldinA]
Settings	relative cell number
sgRNA knockout: sgATF3, 10 nM	114
sgRNA knockout: sgATF3, 100 nM	18.2
sgRNA knockout: sgATF3, 1000 nM	10.9
sgRNA knockout: sgATF3, 10000 nM	3.69
sgRNA knockout: sgATF4, 10 nM	121
sgRNA knockout: sgATF4, 100 nM	20.8
sgRNA knockout: sgATF4, 1000 nM	11.5
sgRNA knockout: sgATF4, 10000 nM	6.17
sgRNA knockout: sgATF6, 10 nM	150
sgRNA knockout: sgATF6, 100 nM	17.3
sgRNA knockout: sgATF6, 1000 nM	5.53
sgRNA knockout: sgATF6, 10000 nM	2.95
sgRNA knockout: sgATG7, 10 nM	105
sgRNA knockout: sgATG7, 100 nM	16.3
sgRNA knockout: sgATG7, 1000 nM	8.17
sgRNA knockout: sgATG7, 10000 nM	5.43
sgRNA knockout: sgERN1, 10 nM	118
sgRNA knockout: sgERN1, 100 nM	24.9
sgRNA knockout: sgERN1, 1000 nM	9.21
sgRNA knockout: sgERN1, 10000 nM	6.8
sgRNA knockout: sgHSF2, 10 nM	106
sgRNA knockout: sgHSF2, 100 nM	19
sgRNA knockout: sgHSF2, 1000 nM	10.6
sgRNA knockout: sgHSF2, 10000 nM	6.63
sgRNA knockout: sgNFE2L2, 10 nM	107
sgRNA knockout: sgNFE2L2, 100 nM	15.2
sgRNA knockout: sgNFE2L2, 1000 nM	10.9
sgRNA knockout: sgNFE2L2, 10000 nM	5.31
sgRNA knockout: sgSLC35F2, 10 nM	85.2
sgRNA knockout: sgSLC35F2, 100 nM	16.3
sgRNA knockout: sgSLC35F2, 1000 nM	2.55
sgRNA knockout: sgSLC35F2, 10000 nM	10.3
sgRNA knockout: sgXBP1, 10 nM	99.5
sgRNA knockout: sgXBP1, 100 nM	17.15
sgRNA knockout: sgXBP1, 1000 nM	9
sgRNA knockout: sgXBP1, 10000 nM	3.93

COc1cc2nccc(Oc3ccc(NC(=O)C4(C(=O)Nc5ccc(F)cc5)CC4)cc3)c2cc1OC [Cabozantinib]
Settings	relative cell number
sgRNA knockout: sgATF3, 10 nM	83.2
sgRNA knockout: sgATF3, 100 nM	99.5
sgRNA knockout: sgATF3, 1000 nM	105
sgRNA knockout: sgATF3, 10000 nM	47.2
sgRNA knockout: sgATF4, 10 nM	117
sgRNA knockout: sgATF4, 100 nM	93.6
sgRNA knockout: sgATF4, 1000 nM	96.2
sgRNA knockout: sgATF4, 10000 nM	34.2
sgRNA knockout: sgATF6, 10 nM	105
sgRNA knockout: sgATF6, 100 nM	93.9
sgRNA knockout: sgATF6, 1000 nM	94.8
sgRNA knockout: sgATF6, 10000 nM	26.2
sgRNA knockout: sgATG7, 10 nM	92.8
sgRNA knockout: sgATG7, 100 nM	74.5
sgRNA knockout: sgATG7, 1000 nM	85.2
sgRNA knockout: sgATG7, 10000 nM	34.8
sgRNA knockout: sgERN1, 10 nM	93.2
sgRNA knockout: sgERN1, 100 nM	114
sgRNA knockout: sgERN1, 1000 nM	106
sgRNA knockout: sgERN1, 10000 nM	47.7
sgRNA knockout: sgHSF2, 10 nM	94.4
sgRNA knockout: sgHSF2, 100 nM	113
sgRNA knockout: sgHSF2, 1000 nM	92.9
sgRNA knockout: sgHSF2, 10000 nM	37.3
sgRNA knockout: sgNFE2L2, 10 nM	90.3
sgRNA knockout: sgNFE2L2, 100 nM	94.5
sgRNA knockout: sgNFE2L2, 1000 nM	89.1
sgRNA knockout: sgNFE2L2, 10000 nM	33.8
sgRNA knockout: sgSLC35F2, 10 nM	118
sgRNA knockout: sgSLC35F2, 100 nM	85
sgRNA knockout: sgSLC35F2, 1000 nM	63.3
sgRNA knockout: sgSLC35F2, 10000 nM	37.9
sgRNA knockout: sgXBP1, 10 nM	79.7
sgRNA knockout: sgXBP1, 100 nM	103
sgRNA knockout: sgXBP1, 1000 nM	102
sgRNA knockout: sgXBP1, 10000 nM	36.4
